Results are given in words; binding and its absence hold for the method and conditions named. Some results given as binding are weak or reduced against the parent protein; the word gives no strength.
Target: GST-MDM2 (full length) (UniProt P23804)
Assay: pull-down; purified GST-MDM2 incubated with purified FLAG-p53 and an increasing amount of purified FLAG-HA-CSIG overnight at 4 °C; Glutathione Sepharose; washed with BC100 buffer; western blot; both purified

binding: binds
Substance: FLAG-p53 (from UniProt P04637 1-393)
